This assay has as its target Rof (Rho-off, YaeO), E. coli (E. coli) (UniProt P0AFW8). Description: SEC; gel filtration of purified Rof alone and of purified Rho alone; both purified.

Results are given in words; binding and its absence hold for the method and conditions named.

B1: Rof (Rho-off, YaeO), E. coli (natural protein)
chain: MNDTYQPINCDDYDNLELACQHHLMLTLELKDGEKLQAKASDLVSRKNVEYLVVEAAGETRELRLDKITSFSHPEIGTVVVSES
notes: Protein Rof (YaeO), E. coli, expressed from pET22b-rof; In the cryo-EM map density was absent for Rof residues 1-5; No removal of the tag is described; also called EcRof; source: E. coli BL21(DE3) transformed with pET22b-rof, purified (Ni-NTA, Superdex 200)
For B1, the binding result is given as “no binding”.
